Here are results for two molecules from paper doi:10.1101/2020.11.18.387720.

Results are given in words; binding and its absence hold for the method and conditions named. In cells and extracts the contact can be indirect. Some entries that bind do so weakly or less than the wild type. Tags and fused reporters may be left off the sequences shown.

Assay [1] has as its target T1, Fz2 (endogenous, detected with anti-Fz2-N antibody) (Drosophila (endogenous in larval muscle)) (UniProt Q9VVX3).
T1 sequence: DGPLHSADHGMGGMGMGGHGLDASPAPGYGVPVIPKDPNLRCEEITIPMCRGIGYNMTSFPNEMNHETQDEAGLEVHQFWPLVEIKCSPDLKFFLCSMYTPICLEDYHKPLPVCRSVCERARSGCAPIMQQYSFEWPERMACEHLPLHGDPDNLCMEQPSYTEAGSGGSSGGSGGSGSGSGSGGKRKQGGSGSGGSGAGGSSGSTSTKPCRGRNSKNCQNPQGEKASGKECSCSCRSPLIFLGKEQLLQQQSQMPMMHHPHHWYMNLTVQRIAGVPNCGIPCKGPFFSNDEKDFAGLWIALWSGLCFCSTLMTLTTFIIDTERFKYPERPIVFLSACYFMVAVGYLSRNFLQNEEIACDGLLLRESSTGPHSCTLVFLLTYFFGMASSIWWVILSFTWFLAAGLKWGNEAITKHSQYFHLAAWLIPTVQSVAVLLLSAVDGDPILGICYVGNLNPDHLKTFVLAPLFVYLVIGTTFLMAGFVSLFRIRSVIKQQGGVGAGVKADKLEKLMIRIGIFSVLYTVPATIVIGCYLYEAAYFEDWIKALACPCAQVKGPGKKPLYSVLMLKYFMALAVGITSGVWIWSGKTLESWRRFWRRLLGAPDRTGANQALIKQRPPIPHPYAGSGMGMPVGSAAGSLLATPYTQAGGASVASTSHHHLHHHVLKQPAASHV
Description: proximity ligation.

In assay [2] the target is T2, Fz2-FLAG (C-terminally FLAG-tagged Frizzled2) (Drosophila) (UniProt Q9VVX3).
T2 sequence: T1 sequence
The experiment in a line: proximity ligation.

B1: Nct-Myc (epitope-tagged Nicastrin) (protein, UniProt Q9VC27 23-695)
chain: QGERTRDKMYEPIGGASCFRRLNGTHQTGCSSTYSGSVGVLHLINVEADLEFLLSSPPSPPYAPMIPPHLFTRNNLMRLKEAGPKNISVVLLINRTNQMKQFSHELNCPNQYSGLNSTSETCDASNPAKNWNPWGTGLLHEDFPFPIYYIADLDQVTKLEKCFQDFNNHNYETHALRSLCAVEVKSFMSAAVNTEVCMRRTNFINNLGGSKYCDPLEGRNVYATLYPRKPAIENNLETVHTNEKFILVTCRLDTTTMFDGVGLGAMDSLMGFAVFTHVAYLLKQLLPPQSKDLHNVLFVTFNGESYDYIGSQRFVYDMEKLQFPTESTGTPPIAFDNIDFMLDIGTLDDISNIKLHALNGTTLAQQILERLNNYAKSPRYGFNLNIQSEMSAHLPPTSAQSFLRRDPNFNALILNARPTNKYYHSIYDDADNVDFTYANTSKDFTQLTEVNDFKSLNPDSLQMKVRNVSSIVAMALYQTITGKEYTGTKVANPLMADEFLYCFLQSADCPLFKAASYPGSQLTNLPPMRYISVLGGSQESSGYTYRLLGYLLSQLQPDIHRDNCTDLPLHYFAGFNNIGECRLTTQNYSHALSPAFLIDGYDWSSGMYSTWTESTWSQFSARIFLRPSNVHQVTTLSVGIVVLIISFCLVYIISSRSEVLFEDLPASNAALFG
On to B1, for which the binding result in assay [1] is reported as “binds”.

B2: Psn-Myc (epitope-tagged Presenilin) (protein, UniProt O02194 1-541)
chain: MAAVNLQASCSSGLASEDDANVGSQIGAAERLERPPRRQQQRNNYGSSNQDQPDAAILAVPNVVMREPCGSRPSRLTGGGGGSGGPPTNEMEEEQGLKYGAQHVIKLFVPVSLCMLVVVATINSISFYNSTDVYLLYTPFHEQSPEPSVKFWSALANSLILMSVVVVMTFLLIVLYKKRCYRIIHGWLILSSFMLLFIFTYLYLEELLRAYNIPMDYPTALLIMWNFGVVGMMSIHWQGPLRLQQGYLIFVAALMALVFIKYLPEWTAWAVLAAISIWDLIAVLSPRGPLRILVETAQERNEQIFPALIYSSTVVYALVNTVTPQQSQATASSSPSSSNSTTTTRATQNSLASPEAAAASGQRTGNSHPRQNQRDDGSVLATEGMPLVTFKSNLRGNAEAAGFTQEWSANLSERVARRQIEVQSTQSGNAQRSNEYRTVTAPDQNHPDGQEERGIKLGLGDFIFYSVLVGKASSYGDWTTTIACFVAILIGLCLTLLLLAIWRKALPALPISITFGLIFCFATSAVVKPFMEDLSAKQVFI
For the molecule B2, the binding result in assay [2] is recorded as “binds”.
